The term AC50 denotes the concentration giving half of the maximal activity seen.

The results in this text go back to PubChem BioAssay AID493014 (National Center for Advancing Translational Sciences (NCATS), 2011).

Some of the results follow. Further columns of the screen follow, without active or inactive calls. Most of these compounds were active or inconclusive in the main read-out, so they are no random draw. The note in brackets gives the kind of curve behind each potency; many fits are weak.

This experiment in a line: qHTS Assay to Find Inhibitors of Chronic Active B-Cell Receptor Signaling. To be noted: ABC-DLBCL IkBa-CBG/CBR reporter, luminescence ratio (green luciferase fused to IkBa over red control in TMD8 lymphoma cells), 4 h. The essentials:
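Doxycycline induced both beetle luciferases in TMD8 lymphoma cells; IKK-driven degradation limits the IkappaBalpha-fused green signal, while red luminescence normalises for cell number and nonspecific effects. Compounds tested up to 46 uM, 4 hrs.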
A general note: Quantitative high-throughput screening tests each substance at several concentrations.

[1] abbreviates: measured here: CBR red luminescence, cell number.
The mark [2] stands for this setting: measured here: IkBa-CBG green luminescence.

As for `CCOC(=O)c1c(-c2ccccc2Cl)cn2ccccc12`, under setting [1], the AC50 is 0.58 µM [rising, partial curve, poor fit].

Take `Cc1cc(C)nc(NS(=O)(=O)c2ccc(NC(=O)COc3ccccc3)cc2)n1`: under setting [1], the AC50 was 11.2 µM [falling, single point].

Consider `CCc1cccc(NC(=O)CN(C)S(=O)(=O)c2cnc[nH]2)c1`, for which the AC50 under setting [1] was 22.4 µM [falling, single point].

Regarding `CCOc1ccc(CN2CCN(Cc3cccc4nonc34)CC2CCO)cc1` (stereo unspecified), the AC50 under setting [1] is 35.5 µM [rising, single point].

Take `COc1ccc(F)cc1C(=O)C1CCCN(Cc2cnc(N3CCCC3)s2)C1` (stereo unspecified): under setting [1], the AC50 was 20 µM [falling, single point].

Regarding `CC(C(=O)NCC1CCCO1)N1C(=O)C2C3CC(C(Br)C3Br)C2C1=O` (stereo unspecified), the AC50 under setting [1] was 5.62 µM [rising, single point].

Consider `CCn1c(/C=C/N(C)c2ccccc2)[n+](CC)c2ccc(Cl)cc21`, for which, under setting [1], the AC50 is 14.6 µM [falling, single point].

For the molecule `Cc1cccc(-c2noc(CCCOc3ccc(Cl)cc3Cl)n2)c1`, the AC50 under setting [1] is 13 µM [rising, single point].

As to `CC1CN(CC(=O)c2c(N)n(Cc3ccccc3)c(=O)n(C)c2=O)CC(C)O1` (stereo unspecified), the AC50 under setting [1] was 29.1 µM [rising, single point].

As to `COc1ccc2nc(NC(=O)Nc3cccc4ccccc34)sc2c1`, the AC50 under setting [1] is 2.82 µM [falling, full curve, poor fit].

In the case of `N#CCCCc1cc2cc(F)ccc2cn1`, the AC50 under setting [1] was 20.6 µM [rising, single point].

With `CCOC(=O)C1CCN(C(=O)c2oc3ccc(S(=O)(=O)N4CC(C)CC(C)C4)cc3c2C)CC1` (stereo unspecified), the AC50 under setting [1] is 18.4 µM [falling, single point].

Regarding `O=C(N/N=C/c1ccc(Cl)cc1)c1n[nH]c2c1CCCC2`, the AC50 under setting [1] is 3.55 µM [rising, partial curve, poor fit] and the AC50 under setting [2] is 3.16 µM [falling, full curve].

Take `COc1ccc(C23CC4CC(CC(C(=O)O)(C4)C2)C3)c(F)c1`: the AC50 under setting [1] was 10 µM [rising, partial curve].

`CC(=O)c1ccc(N2CCN(C(=O)c3ccc(Cn4c(=O)[nH]c5ccccc5c4=O)cc3)CC2)cc1`: under setting [1], the AC50 is 3.98 µM [rising, partial curve, poor fit].

For `COc1ccc(-c2cc(C(=O)N3CCN(c4ccccc4OC)CC3)no2)cc1`, the AC50 under setting [1] was 12.6 µM [falling, single point].

On to `CC(C)CC(NC(=O)C1CCC(C)CC1)C(=O)NCc1ccccn1` (stereo unspecified), for which, under setting [1], the AC50 was 3.66 µM [rising, single point].

`COc1ccc(C(CNC(=O)c2cc(=O)[nH]c3ccccc23)N2CCCC2)cc1` (stereo unspecified): under setting [1], the AC50 was 12.6 µM [rising, single point].

With `COc1ccccc1Sc1nc(-c2ccccn2)ncc1OC`, the AC50 under setting [1] was 22.4 µM [falling, single point].

Take `O=C(/C=C/c1ccc(F)cc1)NC(=S)N1CCN(c2ccccn2)CC1`: the AC50 under setting [1] was 12.6 µM [falling, partial curve, poor fit].

`COc1ccc(NC(=O)COc2ccccc2)cc1NC(=O)c1ccco1`: the AC50 under setting [1] is 22.4 µM [falling, single point].

Take `Cc1ccccc1C(=O)NNC(=S)Nc1cccc(C(F)(F)F)c1`: under setting [1], the AC50 is 20.6 µM [falling, partial curve, poor fit].

With `COC(=O)c1cccc(NC(=O)CCc2ccccc2)c1`, the AC50 under setting [1] is 11.6 µM [falling, partial curve].

As for `N#Cc1ccsc1NC(=O)CSc1nnnn1-c1ccc(O)cc1`, under setting [1], the AC50 was 7.08 µM [falling, full curve].

With `Cn1c(=O)c2c(ncn2CC(=O)N2CCc3ccccc3C2)n(C)c1=O`, under setting [1], the AC50 was 0.631 µM [falling, partial curve, poor fit].

`COc1ccc(-c2nnc(-c3ccc(N)cc3)o2)cc1`: the AC50 under setting [1] was 0.0058 µM [falling, full curve, poor fit].

Take `Cc1ccc(C2=NN(C(=O)CSc3nc(N)cc(N)n3)C(c3ccco3)C2)cc1` (stereo unspecified): under setting [2], the AC50 is 20.6 µM [falling, partial curve, poor fit].

As to `CCC(Sc1nc2n[nH]c(C)c2c(=N)n1-c1ccc(C)c(Cl)c1)C(=O)N1CCOCC1` (stereo unspecified), the AC50 under setting [1] is 0.651 µM [falling, full curve, poor fit].

In the case of `COc1ccccc1NC(CC(=O)c1ccccc1)C(=O)OCC(=O)c1ccc(C)cc1` (stereo unspecified), under setting [1], the AC50 was 18.4 µM [falling, single point].

`CCCc1c(C)nc2c(Br)cccc2c1Cl`: the concentration at half-maximal activity (AC50) under setting [1] was 29.1 µM [rising, single point].

On to `COC(=O)[C@@H]1CC[C@H](C)[C@@H](c2ccc(C)cc2)N1C(=O)c1ccc(/C=N/OC[C@@H](O)[C@H]2O[C@@H]3OC(C)(C)O[C@@H]3[C@H]2O)cc1`, for which the AC50 under setting [1] was 18.4 µM [falling, single point].

For the molecule `CCOC(=O)/C(=N\Nc1cc(Cl)ccc1Cl)N1CCN(CC)CC1`, the AC50 under setting [1] was 32.6 µM [falling, single point].

As for `COc1ccc(C(=O)/C=C/C(=O)N(CC(=O)NC2CCCCC2)CC2CCCO2)c(O)c1` (stereo unspecified), under setting [1], the AC50 was 35.5 µM [falling, single point].

Regarding `COc1ccc(/C=N/NC(=O)CCc2n[nH]c(=O)[nH]c2=O)cc1O`, the AC50 under setting [1] is 3.26 µM [falling, single point].

Regarding `CC(C)(C)N(Cc1ccccc1)C(=O)CSc1nc2ccccc2c(=O)[nH]1`, the AC50 under setting [1] was 2.06 µM [falling, full curve, poor fit].

On to `COc1ccc(C(=O)NCCNC(C)=O)cc1S(=O)(=O)NCc1ccc(Cl)cc1`, for which the AC50 under setting [1] was 29.1 µM [rising, single point].

For `Cc1ccccc1Nc1nc(Nc2ccccc2C)nc(SC2=NCCS2)n1`, the AC50 under setting [1] is 0.146 µM [rising, full curve, poor fit].

For `C=CCn1c(SCC(=O)c2ccc(O)c(O)c2)nnc1-c1cccc(C)c1`, under setting [1], the AC50 was 2.06 µM [falling, full curve].

Take `CC1CN(C(=O)c2cc(Br)c(Br)s2)CC(C)O1` (stereo unspecified): under setting [1], the AC50 is 5.8 µM [rising, full curve, poor fit].

In the case of `OC[C@H]1O[C@@H](n2cnc3c(NC4CCCC4)ncnc32)[C@H](O)[C@@H]1O`, the AC50 reads like this: under setting [1], 1.46 µM [rising, full curve]; under setting [2], 0.708 µM [falling, full curve].

Consider `Cc1ccc(N(CC(=O)Nc2ccc(C)cn2)S(=O)(=O)c2c(C)nn(C)c2C)cc1`, for which the AC50 under setting [1] was 4.47 µM [falling, partial curve].

`CCc1ccc(-c2nc(CCl)cs2)cc1`: the AC50 under setting [1] is 8.2 µM [rising, partial curve].

With `Cc1cc(C)c(C#N)c(SCc2nnc(-c3ccccc3)o2)n1`, the AC50 under setting [1] is 0.0517 µM [falling, full curve].

On to `COc1ccc(NC(=O)C/C(C)=N/NC(=O)c2cccs2)c([N+](=O)[O-])c1`, for which the AC50 under setting [1] was 7.94 µM [falling, partial curve].

Turning to `CCN(CC)c1ccc(/C=N/NC(=O)c2ccc(Br)o2)cc1`, the AC50 under setting [1] was 29.1 µM [falling, single point].

For the molecule `CCOC(=O)N1C(=O)[C@@](c2ccc(Cl)cc2)(C(C)C)N1C(=O)OCC`, under setting [1], the AC50 was 35.5 µM [falling, single point].

With `COc1ccc(N(CC(=O)N/N=C/c2cccc(OC)c2OC)S(=O)(=O)c2ccccc2)cc1`, under setting [1], the AC50 was 2.24 µM [rising, partial curve, poor fit].

On to `O=C(Nc1nccs1)C(F)(F)C(F)(F)C(F)(F)C(=O)Nc1nccs1`, for which the AC50 under setting [1] is 35.5 µM [falling, single point].

As to `O=C(N/N=C1\CCc2ccccc21)c1ccccc1Cl`, the AC50 under setting [1] is 29.1 µM [falling, single point].

Turning to `Cc1ccc(CNC(=O)[C@H](C)N2C(=O)N3CCc4c([nH]c5ccccc45)[C@@]3(C)C2=O)cc1`, under setting [1], the AC50 is 17.8 µM [falling, partial curve, poor fit].

Take `CCc1nnc(N/N=C/c2ccc(N3CCC(C)CC3)c([N+](=O)[O-])c2)n1N`: the AC50 under setting [2] was 16.4 µM [falling, single point].

As to `Cc1sc2ncnc(SCC(=O)NCC(C)C)c2c1C`, the AC50 under setting [1] is 29.1 µM [rising, single point].

For the molecule `COc1cccc2[nH]c(C(=O)NCC3CCCO3)cc12` (stereo unspecified), under setting [1], the AC50 was 22.4 µM [falling, single point].

In the case of `CCOC(=O)c1c(S(=O)(=O)Nc2cccc(-c3ccno3)c2)c(C)n(C)c1C`, the AC50 under setting [1] was 35.5 µM [rising, single point].

In the case of `Cc1ccc(CC(=O)Nc2cccc([N+](=O)[O-])c2)cc1`, the AC50 under setting [1] was 10 µM [rising, partial curve, poor fit].

For `O=C(Nc1ccc(F)cc1)Nc1ccccc1F`, under setting [1], the AC50 is 10 µM [falling, partial curve].

For `O=C(O)CC/C(=C\c1cc2c(cc1Br)OCO2)c1nc2ccccc2s1`, the AC50 under setting [1] was 3.16 µM [rising, full curve, poor fit].

On to `COc1ccc2c(c1)nc(SCC(C)O)n2C` (stereo unspecified), for which the AC50 under setting [1] was 29.1 µM [rising, partial curve].

With `O=C(CCN1C(=O)/C(=C/c2ccccc2)SC1=S)NNC(=O)c1ccncc1`, the AC50 under setting [1] is 0.0891 µM [rising, full curve, poor fit].

For `COc1ccc(N=Nc2cc(C)c(O)c(CN3CCCCC3)c2)cc1`, the AC50 under setting [1] was 20 µM [rising, partial curve, poor fit].

`Cc1cc(NC(=O)CSc2nc3ccccc3c(=O)n2C2CCCC2)no1`: the AC50 was 11.6 µM [rising, partial curve] under setting [1] and 4.61 µM [falling, full curve] under setting [2].

On to `COCCSc1nnc(NC(=O)CCS(=O)(=O)c2ccccc2)s1`, for which, under setting [1], the AC50 was 8.91 µM [falling, partial curve].

With `O=C(Nc1ccc(Cl)c(-c2nc3ccccc3[nH]2)c1)c1ccc2c(c1)OCO2`, under setting [1], the half-maximal activity concentration (AC50) was 10.3 µM [falling, partial curve].
